Assay results taken from PubChem BioAssay AID504444 (National Center for Advancing Translational Sciences (NCATS), 2011).
About 7,500 (2.1%) of roughly 360,000 compounds were called active. Inconclusive results, whose numbers are uncertain, are shown with a selection of clear calls. Calls come from the whole dose curve; as a rule, active = well fitted inhibition curve with a large enough effect; inconclusive = small, poorly fitted or top-dose-only effect, or effect the other way; inactive = flat fitted curve, though single readings scatter. Potencies beside an inconclusive call are fits to weak or partial responses and may not hold up.

Assay: Nrf2 qHTS screen for inhibitors; note: nearly all actives have a fitted effect of over 60% in size
Conditions: A549 ARE-Fluc reporter, luciferase luminescence, 18-24 h; activity change, negative = inhibition: at 46 µM (top of the series)
Method in brief: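 Quantitative HTS in A549 cells stably bearing an antioxidant response element-firefly luciferase construct. Inhibition of Nrf2-driven transcription was scored by luminescence after 18-24 h of compound exposure at 37 °C.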
% is set by controls: 0 for no effect and ±100 for the full control effect; potency is the fitted concentration of half-maximal effect.

Row | Compound | activity change, negative = inhibition | Potency
1 | O=C1NC(=O)N(c2ccc(F)cc2)C(=O)/C1=C/c1ccsc1 | inactive: 11.3% | –
2 | CN(C)c1ccc(/C=C2/C(=N\O)C3CCN2CC3)cc1 | – | inconclusive: 2.06 µM [activator, full curve, poor fit]
3 | C[C@]12CC[C@H](O)CC1=C([N+](=O)[O-])CC1C2CC[C@@]2(C)C1CC[C@@H]2O (stereo partly drawn) | inactive: 0.87% | –
4 | CC(C)CNC(=O)c1c(N)n(Cc2ccc3c(c2)OCO3)c2nc3ccccc3nc12 | – | inconclusive: 29.1 µM [falling, single point]
5 | Cc1ccc(C)c(-n2c(C)nc3ccccc3c2=O)c1 | inactive: -2.21% | –
6 | O=C(O)CSCC(=O)N(Cc1ccccc1)c1nc(-c2ccccc2)c(-c2ccccc2)s1 | – | inconclusive: 25.9 µM [falling, partial curve, poor fit]
7 | Cc1ccc2ccccc2c1NC(=O)CNC1CCCCC1 | – | inconclusive: 29.1 µM [falling, single point]
8 | Cc1nn(CCC#N)c2c1P(=S)(N1CCCC1)OC(c1ccc(F)cc1)=N2 (stereo not drawn) | inactive: -13.7% | –
9 | COc1nc(NC2CCCCC2)nc(NC(C)(C)C)n1 | – | inconclusive: 6.51 µM [activator, single point]
10 | COc1cc2c(c(OC)c1O)-c1ccc(OC)c(=O)cc1C(NC(=O)C(F)(F)F)CC2 (stereo not drawn) | – | inconclusive: 5.8 µM [activator, partial curve, poor fit]
11 | COC(=O)C1=C(c2cc3ccccc3s2)C[C@@H]2CC[C@H]1N2C(=O)NC1CC1 | – | inconclusive: 32.6 µM [falling, single point]
12 | COC(=O)C1=C(c2ccc(OC(F)(F)F)cc2)C[C@@H]2CC[C@H]1N2C(=O)N1CCC(C)CC1 | – | active: 18.4 µM
13 | COc1ccc(NC(=O)c2ccc(COCC(F)(F)C(F)F)cc2)cc1 | – | inconclusive: 20.6 µM [falling, partial curve, poor fit]
14 | COc1cccc(C(=O)Nc2ccc(-c3cc(C(F)(F)F)nn3-c3ccccc3)cc2)c1 | – | active: 14.6 µM
15 | COC(=O)C1=C(c2ccc(Cl)c(C(F)(F)F)c2)C[C@@H]2CC[C@H]1N2C(=O)NCc1ccc2c(c1)OCO2 | – | inconclusive: 29.1 µM [falling, single point]
16 | Cc1ccc(N2C(=O)/C(=C/N3CCN(C(=O)c4ccco4)CC3)C(=O)NC2=S)cc1C | – | inconclusive: 32.6 µM [falling, single point]
17 | COc1ccc(CCn2c(O)c(C=NC3CC3)c(=O)[nH]c2=O)cc1OC | – | inconclusive: 25.9 µM [falling, single point]
18 | COC1C(O)C(C)OC(OC2CCC3(C)C(CCC4C3C(O)CC3(C)C(C5=CC(=O)OC5)CCC43O)C2)C1O (stereo not drawn) | – | active: 0.146 µM
19 | Cn1c(=O)c2c(ncn2CC(=O)Nc2nc(-c3ccccc3Cl)cs2)n(C)c1=O | – | inconclusive: 23.1 µM [falling, single point]
20 | NC(=O)c1ccc(N=Cc2c(O)n(Cc3ccco3)c(=O)[nH]c2=O)cc1 | inactive: 10.9% | –
21 | COc1ccc(C=C(C(=O)O)c2ccc(OC)cc2)cc1 | – | inconclusive: 5.17 µM [activator, full curve, poor fit]
22 | C=C(C)[C@@]12OC3(c4ccccc4)O[C@@H]1C1[C@@H]4O[C@]4(CO)[C@@H](O)[C@]4(O)C(=O)C(C)=C[C@H]4[C@@]1(O3)[C@H](C)[C@H]2OC(=O)/C=C/C=C/c1ccccc1 (stereo partly drawn) | – | active: 0.0052 µM

Some of the entries above, reformatted.
Row	Compound	activity change, negative = inhibition	Potency
14	COc1cccc(C(=O)Nc2ccc(-c3cc(C(F)(F)F)nn3-c3ccccc3)cc2)c1	–	active: 14.6 µM
15	COC(=O)C1=C(c2ccc(Cl)c(C(F)(F)F)c2)C[C@@H]2CC[C@H]1N2C(=O)NCc1ccc2c(c1)OCO2	–	inconclusive: 29.1 µM [falling, single point]
16	Cc1ccc(N2C(=O)/C(=C/N3CCN(C(=O)c4ccco4)CC3)C(=O)NC2=S)cc1C	–	inconclusive: 32.6 µM [falling, single point]

The list goes on.

Row | Compound | activity change, negative = inhibition | Potency
23 | C=C1C(=O)O[C@@H]2C[C@@H](C)[C@@H]3C4OC4C(=O)[C@@]3(C)[C@@H](O)[C@H]12 (stereo partly drawn) | – | inconclusive: 20.6 µM [falling, single point]
24 | COC(=O)C1=C(c2ccccc2OCc2ccccc2)C[C@@H]2CC[C@H]1N2C(=O)NCc1cccc(C(F)(F)F)c1 | – | active: 16.4 µM
25 | O=C1NC(=O)N(c2ccccc2)C(=O)/C1=C\c1ccccc1[N+](=O)[O-] | inactive: 1.33% | –
26 | CC(/C=C(\C)Nc1ccccc1)=Nc1ccccc1 | inactive: 6.25% | –
27 | CC(=O)OC(C)(C)/C=C/C(=O)[C@](C)(O)[C@H]1[C@H](O)C[C@@]2(C)[C@@H]3CC=C4[C@H](C[C@H](O)C(=O)C4(C)C)[C@]3(C)C(=O)C[C@]12C | – | inconclusive: 2.06 µM [falling, partial curve, poor fit]
28 | C[C@]12CCC3C(CC[C@H]4[C@H](O)[C@H](O)CC[C@]34C)C1CCC2=O (stereo partly drawn) | inactive: -6.32% | –
29 | Cc1nc2ccccc2n1C1CCN(Cc2nnnn2CCc2ccccc2)CC1 | – | inconclusive: 1.64 µM [falling, full curve]
30 | CCN1CCC2(CC1)NC(=O)c1ccccc1O2 | inactive: 7.94% | –
31 | Cc1cc(C)n(-c2ccc(NN=C(C#N)C#N)cc2)n1 | – | inconclusive: 20.6 µM [falling, single point]
32 | COC(=O)C(O)(c1ccc(NC(=S)NC(=O)c2ccc(Cl)cc2Cl)c(C)c1)C(F)(F)F (stereo not drawn) | – | inconclusive: 23.1 µM [falling, single point]
33 | O=C1C(Cl)=CC(=Nc2ccc(O)cc2)C=C1Cl | inactive: 1.39% | –
34 | CCCOC(=O)c1c(N)n(Cc2cccs2)c2nc3ccccc3nc12 | inactive: -31.7% | –
35 | CC1N(C)c2cc(NC(=O)c3ccco3)c(P(=O)(Nc3ccc([N+](=O)[O-])cc3)N3CCOCC3)cc2C1(C)C (stereo not drawn) | – | active: 16.4 µM
36 | COc1ccccc1CCNC1CCCCCC1 | – | inconclusive: 3.66 µM [falling, full curve, poor fit]
37 | CC1SC2(CN3CCC2CC3)NC1=O (stereo not drawn) | inactive: 14.8% | –
38 | Cc1ccc(NC(=O)c2snnc2C)cc1Cl | – | inconclusive: 10.3 µM [activator, partial curve]
39 | COc1cc(OC)cc(C(=O)Nc2nc(-c3nnn(-c4ccc(C)cc4)c3C)ns2)c1 | – | inconclusive: 29.1 µM [falling, single point]
40 | CCOc1cc2c(cc1OCC)-n1cccc1C(c1ccc(OC(F)F)cc1)NC2 (stereo not drawn) | – | inconclusive: 32.6 µM [falling, single point]
41 | Cc1cc(NC(=O)CCl)no1 | – | active: 16.4 µM
42 | Nc1ccc(C2(c3ccc(N)cc3)c3ccccc3-c3ccccc32)cc1 | – | inconclusive: 20.6 µM [falling, single point]
43 | CCc1cccc(NC(=O)C2CCN(S(=O)(=O)c3ccc(Br)s3)CC2)c1 | – | inconclusive: 16.4 µM [falling, single point]
